Measured values taken from the supplement of paper PMC6078165.
Values are relative to the signal before dosing, not to a vehicle control; the signal also falls without drug.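 Fibroblast labels name human fibroblasts: mostly primary ones from tissues such as uterus (C12385, HUF), lung (H6013), bone (Hs27A), adrenal (HADF) and skin (WS1), plus mammary HMF and breast cancer-associated Hs343T. The cancer cells are basal-like or mesenchymal-like triple-negative breast cancer lines. The paper calls a changed response a hit when it shifts by more than 3x the replicate standard deviation. The tissue of the other fibroblasts is not given here.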

Tested on: BT20
Test: relative JC-1 red fluorescence (viability) vs pre-drug, coculture with fibroblast (fraction); higher = more viable cancer cells
Conditions: 100 µM
Description: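 JC-1 labelled TNBC cells cocultured 1:1 (1,500 cells each) with CellTrace Violet stained primary or stromal fibroblasts in 384-well plates in FluoroBrite medium, treated with one of 42 anticancer drugs at 0.1, 1, 10 or 100 uM. JC-1 red fluorescence (mitochondrial integrity in cancer cells only) was read by plate reader every 8 h for 72 h. Values are normalised to each well's pre-drug value. The stock of one drug was tenfold lower, so its dose labels may be too high.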

CC(C)C[C@H](NC(=O)[C@@H](COC(C)(C)C)NC(=O)[C@H](Cc1ccc(O)cc1)NC(=O)[C@H](CO)NC(=O)[C@H](Cc1c[nH]c2ccccc12)NC(=O)[C@H](Cc1cnc[nH]1)NC(=O)[C@@H]1CCC(=O)N1)C(=O)N[C@@H](CCCNC(=N)N)C(=O)N1CCC[C@H]1C(=O)NNC(N)=O [Goserelin]
relative JC-1 red fluorescence
Conditions	8 h	16 h	24 h	32 h	40 h	48 h	56 h	64 h	72 h
coculture fibroblast: C12385	0.90411	0.827	0.789	0.7319	0.676	0.646	0.612	0.589	0.569
coculture fibroblast: H6013	0.974	0.905	0.8862	0.866	0.8208	0.797	0.783	0.754	0.73
coculture fibroblast: H6019	0.895	0.862	0.862	0.819	0.775	0.757	0.72	0.692	0.66
coculture fibroblast: H6076	0.982	0.872	0.836	0.823	0.796	0.783	0.779	0.789	0.776
coculture fibroblast: H6231	0.807	0.941	0.822	0.768	0.711	0.666	0.622	0.596	0.562
coculture fibroblast: HADF	0.9894	0.898	0.889	0.852	0.823	0.785	0.769	0.755	0.711
coculture fibroblast: HCFa	0.9514	0.863	0.849	0.787	0.728	0.69	0.666	0.644	0.601
coculture fibroblast: HCPF	0.849	0.918	0.846	0.798	0.754	0.714	0.679	0.652	0.609
coculture fibroblast: HHSteC	0.943	0.877	0.871	0.8	0.753	0.716	0.695	0.67	0.639
coculture fibroblast: HMF	0.9595	0.832	0.782	0.731	0.694	0.656	0.627	0.604	0.573
coculture fibroblast: HPFa	0.944	0.8621	0.8496	0.754	0.709	0.657	0.62	0.573	0.509
coculture fibroblast: HUF	0.92706	0.8649	0.866	0.789	0.736	0.695	0.682	0.663	0.639
coculture fibroblast: Hs5	0.86	0.89	0.825	0.784	0.7567	0.725	0.693	0.665	0.638
coculture fibroblast: Hs27A	0.91	0.707	0.846	0.9705	0.926	0.905	0.872	0.849	0.789
coculture fibroblast: Hs343T	0.786	0.886	0.826	0.764	0.715	0.669	0.617	0.578	0.547
coculture fibroblast: WS1	0.869	0.779	0.753	0.686	0.624	0.59	0.55	0.526	0.498
